{"source": "patent US20190282632A1", "about": "“METHODS AND PRODUCTS FOR MODULATING MICROBIOTA COMPOSITION FOR IMPROVING THE EFFICACY OF A CANCER TREATMENT WITH AN IMMUNE CHECKPOINT BLOCKER” (INSTITUT GUSTAVE ROUSSY, priority 2014, published 2019)", "system": "MCA205 sarcoma", "test": "Tumor growth of established MCA205 sarcoma under anti-CTLA4 (9D9) therapy, with antibiotics, gene-deficient hosts, co-administered mAbs or oral bacteria", "settings": "SPF mice; antibiotics in drinking water", "note": "At least one structure is not confirmed: it was looked up by name or label, or the drawing left a doubt.", "data": [{"smiles": "C[C@@H](O)[C@H]1C(=O)N2C(C(=O)O)=C(SCCN=CN)C[C@H]12", "note": "[imipenem]", "values": [{"measurement": "Effect of antibiotic regimen on the antitumor effects of 9D9 Ab against MCA205 sarcomas", "result": "compromised the antitumor effects"}]}]}
